18 compounds from US6627648B1, “Pharmaceutical compositions and methods for use” (Targacept, Inc., priority 1999, dated 2003) can be followed below.

The structures given here were assigned with low confidence; some may be wrong.

The subject of the first assay is Rat brain synaptosomes. Description: Neurotransmitter release from brain synaptosomes. The format is cell-based. Particulars: in the presence of 10 M of ligand; percentage of release obtained with 10 M (S)-(-)-nicotine or 300 M TMA; tested form: hemigalactarate. The protocol:
Neurotransmitter release was measured using techniques similar to those previously published (Bencherif M, et al.:. JPET 279:1413-1421, 1996).
Rat brain synaptosomes were prepared as follows: Female Sprague Dawley rats (100-200 g) were killed by decapitation after anesthesia with 70% CO2. Brains are dissected, and hippocampus, striatum, and thalamus isolated, and homogenized in 0.32 M sucrose containing 5 mM HEPES pH 7.4 using a glass/glass homogenizer. The tissue was then centrifuged for 1000×g for 10 minutes and the pellet discarded. The supernatant was centrifuged at 12000×g for 20 minutes. The resultant pellet was re-suspended in perfusion buffer (128 mM NaCl, 1.2 mM KH2PO4, 2.4 mM KCl, 3.2 mM CaCl2, 1.2 mM MgSO4, 25 mM HEPES, 1 mM Ascorbic acid, 0.01 mM pargyline HCl and 10 mM glucose pH 7.4) and centrifuged for 15 minutes at 25000×g. The final pellet was resuspended in perfusion buffer and placed in a water bath (37° C.) for 10 minutes. Radiolabeled neurotransmitter is added (30 L^3H DA, 20 L^3H NE, 10 L^3H glutamate) to achieve a final concentration of 100 nM, vortexed and placed in a water bath for additional 10 minutes. Tissue-loaded filters is placed onto 11-mm diameter Gelman A/E filters on an open-air support. After a 10-minute wash period, fractions are collected to establish the basal release and agonist applied in the perfusion stream. Further fractions were collected after agonist application to re-establish the baseline. The perfusate was collected directly into scintillation vials and released radioactivity was quantified using conventional liquid scintillation techniques. Release of neurotransmitter was determined in the presence of 10 M of various ligands and was expressed as a percentage of release obtained with a concentration of 10 M (S)-(−)-nicotine or 300 MTMA resulting in maximal effects.
In the case of `NCCCCOc1cccnc1`, the neurotransmitter release was 100%.
Same read-out and setting: with `CNCCCOc1cccc([N+](=O)[O-])c1` the figure was 67%; with `CNCCCOc1cccnc1C`, 69%; with `c1cncc(OCCCNC2CC2)c1`, 51%.
Still for that read-out and setting: in the case of `CNCCCOc1ccc(C)nc1` it was 77%; in that of `CNCCCCOc1cccnc1`, 56%; in that of `CNCCCOc1cccc(N(C)C)c1`, 16%.
Same read-out and setting: in the case of `CNC(C)CCOc1cncc(Cl)c1` (stereo not drawn) it was 30%; in that of `NCCCOc1cccc(N)c1`, 14%.
Regarding `CNCCCOc1ccc2c(c1)OCO2`, the neurotransmitter release is 41%.
Same read-out and setting: with `CNCCCOc1cncc(Cl)c1` the figure was 100%; with `CNCCCOc1cncc(OC)c1`, 54%.
Same read-out and setting: in the case of `CNC(C)CCOc1cccnc1` (stereo not drawn) it was 49%; in that of `CNCCCOc1cncc(OCc2ccccc2)c1`, 38%.
The same measure, in the same setting: with `CN(C)CCCOc1cccnc1` the figure was 32%; with `CN(C)CCCCOc1cccnc1`, 24%; with `CCNCCCOc1cccnc1`, 57%.

The assay is the same for the next values; noted with them: in the presence of 10 M of ligand; percentage of release obtained with 10 M (S)-(-)-nicotine or 300 M TMA; tested form: monogalactarate.
With `CNCCCOc1cncc(OC(C)C)c1`, the neurotransmitter release is on record as 36%.
